Article doi:10.1101/2023.03.09.531914
Like-named read-outs stand apart in the source and are kept apart here. Results are given in words; binding and its absence hold for the method and conditions named. Binding seen in cells or lysates may run through a third protein. These calls come from enrichment with a bait or labelling near it, and not all partners need be listed. For some of these results: Tags and fused reporters may be left off the sequences shown.

Protein sequences, listed by entry. Tags and fused reporters are not part of them.
UniProt Q6NZF1: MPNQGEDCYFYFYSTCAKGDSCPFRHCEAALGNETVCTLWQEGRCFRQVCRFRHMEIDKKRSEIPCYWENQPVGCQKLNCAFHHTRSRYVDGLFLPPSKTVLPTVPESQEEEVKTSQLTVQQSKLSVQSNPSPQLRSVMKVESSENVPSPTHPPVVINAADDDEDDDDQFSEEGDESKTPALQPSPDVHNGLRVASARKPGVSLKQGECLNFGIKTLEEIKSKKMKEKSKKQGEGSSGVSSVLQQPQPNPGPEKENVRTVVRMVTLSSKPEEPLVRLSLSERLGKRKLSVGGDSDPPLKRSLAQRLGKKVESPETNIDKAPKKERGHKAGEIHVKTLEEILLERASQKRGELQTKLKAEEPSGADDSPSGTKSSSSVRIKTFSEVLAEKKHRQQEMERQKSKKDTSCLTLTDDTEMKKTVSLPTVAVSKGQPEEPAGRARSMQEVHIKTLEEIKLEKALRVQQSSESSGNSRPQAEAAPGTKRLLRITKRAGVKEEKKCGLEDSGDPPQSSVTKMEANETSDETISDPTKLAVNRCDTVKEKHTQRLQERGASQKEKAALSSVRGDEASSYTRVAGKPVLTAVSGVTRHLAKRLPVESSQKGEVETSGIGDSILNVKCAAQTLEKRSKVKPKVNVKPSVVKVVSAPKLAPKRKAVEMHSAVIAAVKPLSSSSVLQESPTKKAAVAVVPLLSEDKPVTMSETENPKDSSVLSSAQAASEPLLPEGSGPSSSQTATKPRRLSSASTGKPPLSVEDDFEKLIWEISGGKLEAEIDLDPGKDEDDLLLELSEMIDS
UniProt Q13838: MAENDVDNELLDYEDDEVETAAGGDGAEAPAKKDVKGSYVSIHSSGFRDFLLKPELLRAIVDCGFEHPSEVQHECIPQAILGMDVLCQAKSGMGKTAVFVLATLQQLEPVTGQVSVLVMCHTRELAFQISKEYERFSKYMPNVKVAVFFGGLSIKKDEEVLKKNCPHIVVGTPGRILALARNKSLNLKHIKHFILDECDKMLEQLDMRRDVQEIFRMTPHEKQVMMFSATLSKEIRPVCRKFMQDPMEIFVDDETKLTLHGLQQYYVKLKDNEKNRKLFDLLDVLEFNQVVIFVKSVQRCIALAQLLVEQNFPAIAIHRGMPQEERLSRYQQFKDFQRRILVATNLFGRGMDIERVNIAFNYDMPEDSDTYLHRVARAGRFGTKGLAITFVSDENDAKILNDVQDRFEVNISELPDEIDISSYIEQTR
UniProt P11940: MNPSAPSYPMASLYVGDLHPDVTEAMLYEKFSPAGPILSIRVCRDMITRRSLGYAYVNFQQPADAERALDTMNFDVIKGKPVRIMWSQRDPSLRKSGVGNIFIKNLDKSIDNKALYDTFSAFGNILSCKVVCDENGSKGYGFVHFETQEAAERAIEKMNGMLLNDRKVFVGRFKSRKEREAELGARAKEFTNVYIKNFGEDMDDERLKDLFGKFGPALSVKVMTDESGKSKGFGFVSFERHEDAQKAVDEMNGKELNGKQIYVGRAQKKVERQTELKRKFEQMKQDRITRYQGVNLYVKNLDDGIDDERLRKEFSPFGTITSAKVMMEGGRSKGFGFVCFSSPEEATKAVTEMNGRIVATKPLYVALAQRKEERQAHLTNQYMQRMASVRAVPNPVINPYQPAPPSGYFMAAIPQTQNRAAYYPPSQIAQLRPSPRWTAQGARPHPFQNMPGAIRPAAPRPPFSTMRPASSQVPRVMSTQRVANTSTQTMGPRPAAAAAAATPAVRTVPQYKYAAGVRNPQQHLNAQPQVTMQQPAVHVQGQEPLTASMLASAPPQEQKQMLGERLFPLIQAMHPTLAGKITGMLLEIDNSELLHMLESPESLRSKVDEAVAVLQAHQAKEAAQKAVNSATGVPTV

T1: GFP-ZC3H11A(dZF) (human) (UniProt O75152)
T1 sequence: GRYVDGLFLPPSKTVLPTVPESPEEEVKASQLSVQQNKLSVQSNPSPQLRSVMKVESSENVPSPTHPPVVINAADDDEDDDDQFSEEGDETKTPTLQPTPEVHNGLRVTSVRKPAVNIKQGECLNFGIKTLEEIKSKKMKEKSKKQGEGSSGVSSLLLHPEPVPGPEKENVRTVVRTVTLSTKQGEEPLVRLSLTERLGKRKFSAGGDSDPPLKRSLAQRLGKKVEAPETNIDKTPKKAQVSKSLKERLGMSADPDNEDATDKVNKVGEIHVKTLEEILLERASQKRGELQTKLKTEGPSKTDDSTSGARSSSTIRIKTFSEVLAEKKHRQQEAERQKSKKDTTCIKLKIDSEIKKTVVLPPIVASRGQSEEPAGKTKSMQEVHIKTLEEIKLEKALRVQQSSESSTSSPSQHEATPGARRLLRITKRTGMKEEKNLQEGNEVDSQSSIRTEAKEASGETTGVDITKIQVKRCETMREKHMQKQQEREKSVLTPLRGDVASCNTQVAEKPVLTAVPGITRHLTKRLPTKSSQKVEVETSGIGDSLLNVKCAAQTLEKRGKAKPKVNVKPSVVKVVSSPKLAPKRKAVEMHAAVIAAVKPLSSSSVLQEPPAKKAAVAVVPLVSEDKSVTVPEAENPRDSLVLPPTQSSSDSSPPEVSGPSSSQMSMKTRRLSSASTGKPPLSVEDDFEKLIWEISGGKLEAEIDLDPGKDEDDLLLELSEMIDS

B1: THOC1 (endogenous, HeLa cells) (protein, UniProt Q96FV9 1-657)
chain: MSPTPPLFSLPEARTRFTKSTREALNNKNIKPLLSTFSQVPGSENEKKCTLDQAFRGILEEEIINHSSCENVLAIISLAIGGVTEGICTASTPFVLLGDVLDCLPLDQCDTIFTFVEKNVATWKSNTFYSAGKNYLLRMCNDLLRRLSKSQNTVFCGRIQLFLARLFPLSEKSGLNLQSQFNLENVTVFNTNEQESTLGQKHTEDREEGMDVEEGEMGDEEAPTTCSIPIDYNLYRKFWSLQDYFRNPVQCYEKISWKTFLKYSEEVLAVFKSYKLDDTQASRKKMEELKTGGEHVYFAKFLTSEKLMDLQLSDSNFRRHILLQYLILFQYLKGQVKFKSSNYVLTDEQSLWIEDTTKSVYQLLSENPPDGERFSKMVEHILNTEENWNSWKNEGCPSFVKERTSDTKPTRIIRKRTAPEDFLGKGPTKKILMGNEELTRLWNLCPDNMEACKSETREHMPTLEEFFEEAIEQADPENMVENEYKAVNNSNYGWRALRLLARRSPHFFQPTNQQFKSLPEYLENMVIKLAKELPPPSEEIKTGEDEDEEDNDALLKENESPDVRRDKPVTGEQIEVFANKLGEQWKILAPYLEMKDSEIRQIECDSEDMKMRAKQLLVAWQDQEGVHATPENLINALNKSGLSDLAESLTNDNETNS
B2: PABPN1 (endogenous, mouse embryonic stem cells) (protein, UniProt Q8CCS6 1-302)
chain: MAAAAAAAAAAGAAGGRGSGPGRRRHLVPGAGGEAGEGDPGGAGDYGNGLESEELEPGELLPEPEPEEEPPRPRAPPGAPGPGPGSGAPGSQEEEEEPGLVEADPGDGAIEDPELEAIKARVREMEEEAEKLKELQNEVEKQMNMSPPPGNAGPVIMSLEEKMEADARSIYVGNVDYGATAEELEAHFHGCGSVNRVTILCDKFSGHPKGFAYIEFSDKESVRTSLALDESLFRGRQIKVIPKRTNRPGISTTDRGFPRSRYRARTTNYNSSRSRFYSGFNSRPRGRIYRGRARATSWYSPY
B3: PABPN1 (endogenous, HeLa cells) (protein, UniProt Q86U42 1-306)
chain: MAAAAAAAAAAGAAGGRGSGPGRRRHLVPGAGGEAGEGAPGGAGDYGNGLESEELEPEELLLEPEPEPEPEEEPPRPRAPPGAPGPGPGSGAPGSQEEEEEPGLVEGDPGDGAIEDPELEAIKARVREMEEEAEKLKELQNEVEKQMNMSPPPGNAGPVIMSIEEKMEADARSIYVGNVDYGATAEELEAHFHGCGSVNRVTILCDKFSGHPKGFAYIEFSDKESVRTSLALDESLFRGRQIKVIPKRTNRPGISTTDRGFPRARYRARTTNYNSSRSRFYSGFNSRPRGRVYRGRARATSWYSPY
B4: POLDIP3 (endogenous, HeLa cells) (protein, UniProt Q9BY77 1-421)
chain: MADISLDELIRKRGAAAKGRLNARPGVGGVRSRVGIQQGLLSQSTRTATFQQRFDARQKIGLSDARLKLGVKDAREKLLQKDARFRIKGKVQDAREMLNSRKQQTTVPQKPRQVADAREKISLKRSSPAAFINPPIGTVTPALKLTKTIQVPQQKAMAPLHPHPAGMRINVVNNHQAKQNLYDLDEDDDGIASVPTKQMKFAASGGFLHHMAGLSSSKLSMSKALPLTKVVQNDAYTAPALPSSIRTKALTNMSRTLVNKEEPPKELPAAEPVLSPLEGTKMTVNNLHPRVTEEDIVELFCVCGALKRARLVHPGVAEVVFVKKDDAITAYKKYNNRCLDGQPMKCNLHMNGNVITSDQPILLRLSDSPSMKKESELPRRVNSASSSNPPAEVDPDTILKALFKSSGASVTTQPTEFKIKL
B5: CHTOP (endogenous, mouse embryonic stem cells) (protein, UniProt Q9CY57 1-249)
chain: MAAQSAPKVVLKSTTKMSLNERFTNMLKNKQPMPVNIRASMQQQQQLASARNRRLAQQMENRPSVQAALKLKQKSLKQRLGKSNIQARLGRPIGALARGAIGGRGLPIIQRGLPRGGLRGGRATRTLLRGGMSLRGQNLLRGGRAVAPRMGLRRGGVRGRGGPGRGGLGRGAMGRGGIGGRGRGMIGRGRGGFGGRGRGRGRGRGALTRPVLTKEQLDNQLDAYMSKTKGHLDAELDAYMAQTDPETND
B6: POLDIP3 (endogenous, mouse embryonic stem cells) (protein, UniProt Q8BG81 1-420)
chain: MADLSLDELIRKRGTAAKGRLSVRPGIGGVRSRVGIQHSLVNQPARTATFQQRFDARQKIGLSDARLKLGVKDAREKLLQKDARFRIKGKVQDAREMLNSRKQQGTVPQKPRQVADAREKISLKRRSPAAFTSPPIGTVTPALKLTKTIQVPQQKAMVPLHAHPAGMRINVVNNHQAKQNLYDLDEDDDIVVPVPPKQMKFAATGSLVHHMTGLSSSKLSMSKALPLTKVVQNDAYTAPVLPSSVRTKALTSMSRTLVNKEEPPKELPPAEPVLSPLEGTKMTVNNLHPRVTEEDIVELFCVCGALKRARLVHPGVAEVVFVKKDDAITAYKKYNNRCLDGQPMKCNLHMNGNVITSDQPILLRLSDSPSVKKESELPRRGNPASSNPPAEVDPDTVLRALFKSSGASVTTQPTEFKIKL
B7: THOC6 (endogenous, HeLa cells) (protein, UniProt Q86W42 1-341)
chain: MERAVPLAVPLGQTEVFQALQRLHMTIFSQSVSPCGKFLAAGNNYGQIAIFSLSSALSSEAKEESKKPVVTFQAHDGPVYSMVSTDRHLLSAGDGEVKAWLWAEMLKKGCKELWRRQPPYRTSLEVPEINALLLVPKENSLILAGGDCQLHTMDLETGTFTRVLRGHTDYIHCLALRERSPEVLSGGEDGAVRLWDLRTAKEVQTIEVYKHEECSRPHNGRWIGCLATDSDWMVCGGGPALTLWHLRSSTPTTIFPIRAPQKHVTFYQDLILSAGQGRCVNQWQLSGELKAQVPGSSPGLLSLSLNQQPAAPECKVLTAAGNSCRVDVFTNLGYRAFSLSF

Columns and labels:
Assay in all cases: affinity purification with mass spectrometry
[1] = molecular target: GFP-ZC3H11A(wt) (human) (UniProt O75152)
[2] = molecular target: GFP-ZC3H11A(wt) (human) (UniProt O75152); remark: listed apart in the source
[3] = molecular target: ZC3H11A (endogenous, mouse embryonic stem cells) (mouse (endogenous in mESCs)) (UniProt Q6NZF1)
[4] = molecular target: ZC3H11A(wt)-Flag (expressed in HeLa cells) (human) (UniProt O75152)
[5] = molecular target: ZC3H11A (endogenous, HeLa cells) (human (endogenous in HeLa)) (UniProt O75152)
[6] = molecular target: T1, GFP-ZC3H11A(dZF) (human)

| Molecule | binding [2] | binding [3] | also measured |
| --- | --- | --- | --- |
| DDX39B (endogenous, HeLa cells) (from UniProt Q13838 1-428) |  |  | binding [1]: binds |
| PABPC1 (endogenous, HeLa cells) (from UniProt P11940 1-636) |  |  | binding [1]: binds |
| B1 | binds |  |  |
| B2 |  | binds |  |
| B3 | binds |  | binding [4]: binds; binding [5]: binds |
| B4 | binds |  | binding [6]: binds; binding [5]: binds |
| B5 |  | binds |  |
| B6 |  | binds |  |
| B7 | binds |  |  |
